Results are given in words; binding and its absence hold for the method and conditions named. Binding seen in cells or lysates may run through a third protein.

The chains behind the UniProt entries cited, without tags or fusion partners.
UniProt P49736: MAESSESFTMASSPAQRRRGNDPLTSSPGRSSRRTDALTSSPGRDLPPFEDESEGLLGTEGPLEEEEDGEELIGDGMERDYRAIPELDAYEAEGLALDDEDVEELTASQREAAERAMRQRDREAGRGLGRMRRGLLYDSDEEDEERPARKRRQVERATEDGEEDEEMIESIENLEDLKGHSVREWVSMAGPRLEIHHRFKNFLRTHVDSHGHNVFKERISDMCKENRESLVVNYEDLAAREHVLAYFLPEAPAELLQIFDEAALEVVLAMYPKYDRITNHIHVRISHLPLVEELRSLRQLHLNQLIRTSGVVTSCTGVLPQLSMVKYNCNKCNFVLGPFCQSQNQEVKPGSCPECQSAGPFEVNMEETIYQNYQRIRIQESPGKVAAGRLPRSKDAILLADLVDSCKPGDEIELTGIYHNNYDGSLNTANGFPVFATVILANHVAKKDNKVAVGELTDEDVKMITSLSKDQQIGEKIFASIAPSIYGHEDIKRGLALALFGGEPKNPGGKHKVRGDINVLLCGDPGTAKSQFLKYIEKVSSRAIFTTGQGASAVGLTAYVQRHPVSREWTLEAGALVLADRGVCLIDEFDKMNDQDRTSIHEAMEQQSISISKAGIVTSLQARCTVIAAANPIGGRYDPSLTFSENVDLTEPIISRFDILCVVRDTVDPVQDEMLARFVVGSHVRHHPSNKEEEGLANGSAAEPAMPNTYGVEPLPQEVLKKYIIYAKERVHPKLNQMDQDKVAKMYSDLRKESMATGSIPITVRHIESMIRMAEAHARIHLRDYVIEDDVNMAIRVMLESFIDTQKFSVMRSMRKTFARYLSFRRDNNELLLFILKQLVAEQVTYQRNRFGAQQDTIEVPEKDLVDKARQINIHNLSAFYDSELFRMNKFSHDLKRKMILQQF
UniProt P00722: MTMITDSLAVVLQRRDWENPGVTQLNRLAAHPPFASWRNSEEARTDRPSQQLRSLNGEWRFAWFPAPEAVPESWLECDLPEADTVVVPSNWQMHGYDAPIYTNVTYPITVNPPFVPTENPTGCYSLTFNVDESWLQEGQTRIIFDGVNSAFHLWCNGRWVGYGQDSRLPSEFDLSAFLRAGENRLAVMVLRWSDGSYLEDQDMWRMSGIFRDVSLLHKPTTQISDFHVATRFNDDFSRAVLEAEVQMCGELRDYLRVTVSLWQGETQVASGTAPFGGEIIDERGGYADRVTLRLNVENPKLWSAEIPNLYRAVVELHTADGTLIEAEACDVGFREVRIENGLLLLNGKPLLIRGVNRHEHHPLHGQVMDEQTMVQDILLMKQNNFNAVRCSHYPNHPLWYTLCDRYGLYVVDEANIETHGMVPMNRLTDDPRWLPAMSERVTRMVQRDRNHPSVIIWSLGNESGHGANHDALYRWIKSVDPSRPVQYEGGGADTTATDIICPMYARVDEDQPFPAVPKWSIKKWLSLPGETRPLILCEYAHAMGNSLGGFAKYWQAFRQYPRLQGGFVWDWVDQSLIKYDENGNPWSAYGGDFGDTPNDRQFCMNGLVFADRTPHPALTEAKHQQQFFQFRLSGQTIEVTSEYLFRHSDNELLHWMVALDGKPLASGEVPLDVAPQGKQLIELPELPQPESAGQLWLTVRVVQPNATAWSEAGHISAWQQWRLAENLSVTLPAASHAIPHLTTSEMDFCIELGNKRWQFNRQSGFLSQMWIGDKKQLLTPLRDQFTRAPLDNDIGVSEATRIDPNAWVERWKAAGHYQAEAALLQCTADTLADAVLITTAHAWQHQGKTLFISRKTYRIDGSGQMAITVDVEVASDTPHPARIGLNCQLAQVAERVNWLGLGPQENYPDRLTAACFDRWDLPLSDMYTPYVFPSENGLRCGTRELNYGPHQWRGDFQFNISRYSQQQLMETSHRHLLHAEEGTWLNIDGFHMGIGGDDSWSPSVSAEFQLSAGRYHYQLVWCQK

For experiment [1], the target named is Halo-tagged human MCM2 (HaloMCM2) (human) (UniProt P49736). Description: pull-down.
Experiment [2] deals with HisLacZ (His-tagged LacZ control protein), stably expressed in HepG2 cells [β-galactosidase: P00722]. Description: pull-down.

Take “HisLacZ (His-tagged LacZ control protein), stably expressed in HepG2 cells (from UniProt P00722 1-1024)”: in experiment [1], the binding entry was “no binding”. “endogenous MCM2 (minichromosome maintenance protein 2) (from UniProt P49736 1-904)”: in experiment [2], the binding entry was “no binding”.

For the origin of these results see publication PMC9857746.
